Data as given in PubChem BioAssay AID1159579 (Peter MacCallum Cancer Centre, 2015)

Assay: 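Find genes whose silencing alters migration of lymphatic endothelial cells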 (follow-up of hits)
Cells: human dermal lymphatic endothelial cells
Reagent: single siRNA against human genes, 25 nM
Read-out: 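High content images of wound closure area and cell nuclei counts, each the average of two wells, expressed against mock transfection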
Direction: migration relative to mock: higher = more migration into the scratch; mean nuclei count: higher = more cells remaining
Rule for the call: 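Called active when the migration ratio is 0.6 or lower (impaired) or 1.3 or higher (accelerated), but inactive whenever the mean nuclei count falls under 3300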
Calls: active = migration changed (impaired or accelerated); inactive = no migration change, or too few cells
Here is one part, drawn at random, of about 2,000 reagents tested. Over the whole deposit, 549 (27%) were called active. 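Some migration ratios are negative; siRNAs with too few cells are inactive whatever their migration ratio.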 The numbers tell different reagents against one gene apart. No sequences are given here. Not stated in the record: the time to read-out.

PABPC4 (poly(A) binding protein cytoplasmic 4) #1 — migration relative to mock = 0.44; migration and cell number class = migration reduced; mean nuclei count = 4423; activity call = active
PABPC4 (poly(A) binding protein cytoplasmic 4) #2 — migration relative to mock = 0.72; migration and cell number class = no change in migration or cell number; mean nuclei count = 6056; activity call = inactive
PABPC4 (poly(A) binding protein cytoplasmic 4) #3 — migration relative to mock = 1.08; migration and cell number class = no change in migration or cell number; mean nuclei count = 5026; activity call = inactive
PABPC4 (poly(A) binding protein cytoplasmic 4) #4 — migration relative to mock = 0.8; migration and cell number class = no change in migration or cell number; mean nuclei count = 4766; activity call = inactive
TMEM132E (transmembrane protein 132E) #1 — migration relative to mock = -0.25; migration and cell number class = migration reduced; mean nuclei count = 3450; activity call = active
TMEM132E (transmembrane protein 132E) #2 — migration relative to mock = 0.61; migration and cell number class = no change in migration or cell number; mean nuclei count = 5879; activity call = inactive
TMEM132E (transmembrane protein 132E) #3 — migration relative to mock = 0.71; migration and cell number class = no change in migration or cell number; mean nuclei count = 5707; activity call = inactive
TMEM132E (transmembrane protein 132E) #4 — migration relative to mock = 0.38; migration and cell number class = migration reduced; mean nuclei count = 4366; activity call = active
ARL6IP6 (ARF like GTPase 6 interacting protein 6) #1 — migration relative to mock = 1.08; migration and cell number class = no change in migration or cell number; mean nuclei count = 4725; activity call = inactive
ARL6IP6 (ARF like GTPase 6 interacting protein 6) #2 — migration relative to mock = 1.04; migration and cell number class = no change in migration or cell number; mean nuclei count = 6574; activity call = inactive
ARL6IP6 (ARF like GTPase 6 interacting protein 6) #3 — migration relative to mock = 1.05; migration and cell number class = no change in migration or cell number; mean nuclei count = 5875; activity call = inactive
ARL6IP6 (ARF like GTPase 6 interacting protein 6) #4 — migration relative to mock = 0.68; migration and cell number class = no change in migration or cell number; mean nuclei count = 5072; activity call = inactive
APOBEC4 #1 — migration relative to mock = 0.32; migration and cell number class = too few cells; migration not scored; mean nuclei count = 3186; activity call = inactive
APOBEC4 #2 — migration relative to mock = 0.7; migration and cell number class = no change in migration or cell number; mean nuclei count = 4090; activity call = inactive
APOBEC4 #3 — migration relative to mock = 0.8; migration and cell number class = no change in migration or cell number; mean nuclei count = 4520; activity call = inactive
APOBEC4 #4 — migration relative to mock = 0.36; migration and cell number class = migration reduced; mean nuclei count = 5104; activity call = active
SPICE1 (spindle and centriole associated protein 1) #1 — migration relative to mock = 0.56; migration and cell number class = migration reduced; mean nuclei count = 4912; activity call = active
SPICE1 (spindle and centriole associated protein 1) #2 — migration relative to mock = 0.8; migration and cell number class = no change in migration or cell number; mean nuclei count = 6164; activity call = inactive
SPICE1 (spindle and centriole associated protein 1) #3 — migration relative to mock = -0.02; migration and cell number class = migration reduced; mean nuclei count = 4099; activity call = active
SPICE1 (spindle and centriole associated protein 1) #4 — migration relative to mock = 0.79; migration and cell number class = no change in migration or cell number; mean nuclei count = 5504; activity call = inactive
RAD21 (RAD21 cohesin complex component) #1 — migration relative to mock = 0.94; migration and cell number class = no change in migration or cell number; mean nuclei count = 5403; activity call = inactive
RAD21 (RAD21 cohesin complex component) #2 — migration relative to mock = 0.14; migration and cell number class = migration reduced; mean nuclei count = 4942; activity call = active
RAD21 (RAD21 cohesin complex component) #3 — migration relative to mock = 0.73; migration and cell number class = no change in migration or cell number; mean nuclei count = 5587; activity call = inactive
RAD21 (RAD21 cohesin complex component) #4 — migration relative to mock = 0.2; migration and cell number class = migration reduced; mean nuclei count = 4002; activity call = active

Part of the list above, reformatted:
{"gene":"ARL6IP6 (ARF like GTPase 6 interacting protein 6)","siRNA no.":4,"migration relative to mock":0.68,"migration and cell number class":"no change in migration or cell number","mean nuclei count":5072,"activity call":"inactive"}
{"gene":"APOBEC4","siRNA no.":1,"migration relative to mock":0.32,"migration and cell number class":"too few cells; migration not scored","mean nuclei count":3186,"activity call":"inactive"}
